doi:10.1101/2024.10.13.618076
These are yes or no findings as the source states them, for the method shown. Binding seen in cells or lysates may run through a third protein. Some entries that bind do so weakly or less than the wild type.

Chains of the proteins cited; added tags and fusions are not shown.
UniProt Q14966: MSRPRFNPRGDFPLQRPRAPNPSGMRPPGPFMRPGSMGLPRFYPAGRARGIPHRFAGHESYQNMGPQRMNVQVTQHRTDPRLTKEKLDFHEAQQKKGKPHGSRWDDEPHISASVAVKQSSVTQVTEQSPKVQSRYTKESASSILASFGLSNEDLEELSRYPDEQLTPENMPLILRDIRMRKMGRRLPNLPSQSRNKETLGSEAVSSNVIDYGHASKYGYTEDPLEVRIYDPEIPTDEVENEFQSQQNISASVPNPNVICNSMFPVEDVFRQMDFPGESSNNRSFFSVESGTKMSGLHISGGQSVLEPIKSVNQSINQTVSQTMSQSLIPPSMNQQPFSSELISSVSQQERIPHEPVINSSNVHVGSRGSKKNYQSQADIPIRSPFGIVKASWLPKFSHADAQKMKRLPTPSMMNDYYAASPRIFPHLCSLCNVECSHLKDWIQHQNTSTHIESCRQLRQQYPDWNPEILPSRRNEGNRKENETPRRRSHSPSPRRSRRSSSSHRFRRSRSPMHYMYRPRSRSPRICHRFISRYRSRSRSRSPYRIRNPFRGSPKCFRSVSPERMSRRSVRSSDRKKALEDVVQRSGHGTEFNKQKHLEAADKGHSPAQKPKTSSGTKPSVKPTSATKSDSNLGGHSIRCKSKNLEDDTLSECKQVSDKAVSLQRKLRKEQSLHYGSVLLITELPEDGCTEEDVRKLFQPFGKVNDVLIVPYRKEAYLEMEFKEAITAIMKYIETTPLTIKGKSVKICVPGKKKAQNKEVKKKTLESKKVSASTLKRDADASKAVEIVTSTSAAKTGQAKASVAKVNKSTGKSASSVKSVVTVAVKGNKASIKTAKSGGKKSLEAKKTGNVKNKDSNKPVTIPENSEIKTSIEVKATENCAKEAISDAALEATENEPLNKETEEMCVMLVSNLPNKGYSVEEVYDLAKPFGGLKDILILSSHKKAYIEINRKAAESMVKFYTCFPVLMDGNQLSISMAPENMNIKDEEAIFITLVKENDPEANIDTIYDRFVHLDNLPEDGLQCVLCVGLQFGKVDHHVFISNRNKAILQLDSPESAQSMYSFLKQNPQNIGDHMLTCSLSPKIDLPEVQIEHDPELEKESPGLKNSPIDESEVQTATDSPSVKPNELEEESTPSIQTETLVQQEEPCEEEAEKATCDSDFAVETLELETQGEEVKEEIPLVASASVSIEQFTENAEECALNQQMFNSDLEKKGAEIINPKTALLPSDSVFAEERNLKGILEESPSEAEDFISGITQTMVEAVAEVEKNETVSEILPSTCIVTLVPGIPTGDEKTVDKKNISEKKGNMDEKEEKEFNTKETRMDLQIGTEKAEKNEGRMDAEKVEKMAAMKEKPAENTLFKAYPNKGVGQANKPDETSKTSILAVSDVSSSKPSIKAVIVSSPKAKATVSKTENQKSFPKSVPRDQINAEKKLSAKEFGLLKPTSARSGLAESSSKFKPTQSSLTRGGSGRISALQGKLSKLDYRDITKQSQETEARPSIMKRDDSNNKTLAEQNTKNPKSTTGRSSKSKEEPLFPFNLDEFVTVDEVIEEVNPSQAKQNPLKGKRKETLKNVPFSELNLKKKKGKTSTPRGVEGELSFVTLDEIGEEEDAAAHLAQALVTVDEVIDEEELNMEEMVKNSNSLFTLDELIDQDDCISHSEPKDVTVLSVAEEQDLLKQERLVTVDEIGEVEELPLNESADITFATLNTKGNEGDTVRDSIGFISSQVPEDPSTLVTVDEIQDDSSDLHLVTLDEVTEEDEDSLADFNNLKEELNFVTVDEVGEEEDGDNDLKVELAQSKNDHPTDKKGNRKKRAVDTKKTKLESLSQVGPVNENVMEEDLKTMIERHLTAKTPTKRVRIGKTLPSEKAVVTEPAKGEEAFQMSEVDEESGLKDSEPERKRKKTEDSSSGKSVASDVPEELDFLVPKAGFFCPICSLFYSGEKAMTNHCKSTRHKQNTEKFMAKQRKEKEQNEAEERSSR
UniProt Q99549: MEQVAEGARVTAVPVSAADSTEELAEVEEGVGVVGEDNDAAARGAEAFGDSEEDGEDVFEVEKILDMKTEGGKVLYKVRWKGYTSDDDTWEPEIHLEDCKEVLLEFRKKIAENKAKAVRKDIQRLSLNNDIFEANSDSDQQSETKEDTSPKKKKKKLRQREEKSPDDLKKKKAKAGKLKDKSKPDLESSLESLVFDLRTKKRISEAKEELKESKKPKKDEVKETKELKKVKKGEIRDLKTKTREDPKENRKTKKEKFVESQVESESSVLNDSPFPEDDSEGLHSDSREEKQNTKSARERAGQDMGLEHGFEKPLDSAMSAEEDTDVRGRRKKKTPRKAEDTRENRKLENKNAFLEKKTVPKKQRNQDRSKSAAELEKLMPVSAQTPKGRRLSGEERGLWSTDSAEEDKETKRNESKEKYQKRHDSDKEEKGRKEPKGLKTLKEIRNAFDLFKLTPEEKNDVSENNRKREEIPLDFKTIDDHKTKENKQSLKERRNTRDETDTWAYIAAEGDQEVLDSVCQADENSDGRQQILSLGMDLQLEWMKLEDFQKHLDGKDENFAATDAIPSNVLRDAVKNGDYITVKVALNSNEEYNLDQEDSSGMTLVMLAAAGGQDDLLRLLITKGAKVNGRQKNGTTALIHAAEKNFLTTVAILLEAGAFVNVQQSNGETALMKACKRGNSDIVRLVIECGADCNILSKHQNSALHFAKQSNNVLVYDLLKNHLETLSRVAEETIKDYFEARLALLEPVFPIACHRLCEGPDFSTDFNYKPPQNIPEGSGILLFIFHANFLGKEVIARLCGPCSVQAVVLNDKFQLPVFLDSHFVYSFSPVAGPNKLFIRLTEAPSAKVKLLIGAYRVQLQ
UniProt Q9UK61: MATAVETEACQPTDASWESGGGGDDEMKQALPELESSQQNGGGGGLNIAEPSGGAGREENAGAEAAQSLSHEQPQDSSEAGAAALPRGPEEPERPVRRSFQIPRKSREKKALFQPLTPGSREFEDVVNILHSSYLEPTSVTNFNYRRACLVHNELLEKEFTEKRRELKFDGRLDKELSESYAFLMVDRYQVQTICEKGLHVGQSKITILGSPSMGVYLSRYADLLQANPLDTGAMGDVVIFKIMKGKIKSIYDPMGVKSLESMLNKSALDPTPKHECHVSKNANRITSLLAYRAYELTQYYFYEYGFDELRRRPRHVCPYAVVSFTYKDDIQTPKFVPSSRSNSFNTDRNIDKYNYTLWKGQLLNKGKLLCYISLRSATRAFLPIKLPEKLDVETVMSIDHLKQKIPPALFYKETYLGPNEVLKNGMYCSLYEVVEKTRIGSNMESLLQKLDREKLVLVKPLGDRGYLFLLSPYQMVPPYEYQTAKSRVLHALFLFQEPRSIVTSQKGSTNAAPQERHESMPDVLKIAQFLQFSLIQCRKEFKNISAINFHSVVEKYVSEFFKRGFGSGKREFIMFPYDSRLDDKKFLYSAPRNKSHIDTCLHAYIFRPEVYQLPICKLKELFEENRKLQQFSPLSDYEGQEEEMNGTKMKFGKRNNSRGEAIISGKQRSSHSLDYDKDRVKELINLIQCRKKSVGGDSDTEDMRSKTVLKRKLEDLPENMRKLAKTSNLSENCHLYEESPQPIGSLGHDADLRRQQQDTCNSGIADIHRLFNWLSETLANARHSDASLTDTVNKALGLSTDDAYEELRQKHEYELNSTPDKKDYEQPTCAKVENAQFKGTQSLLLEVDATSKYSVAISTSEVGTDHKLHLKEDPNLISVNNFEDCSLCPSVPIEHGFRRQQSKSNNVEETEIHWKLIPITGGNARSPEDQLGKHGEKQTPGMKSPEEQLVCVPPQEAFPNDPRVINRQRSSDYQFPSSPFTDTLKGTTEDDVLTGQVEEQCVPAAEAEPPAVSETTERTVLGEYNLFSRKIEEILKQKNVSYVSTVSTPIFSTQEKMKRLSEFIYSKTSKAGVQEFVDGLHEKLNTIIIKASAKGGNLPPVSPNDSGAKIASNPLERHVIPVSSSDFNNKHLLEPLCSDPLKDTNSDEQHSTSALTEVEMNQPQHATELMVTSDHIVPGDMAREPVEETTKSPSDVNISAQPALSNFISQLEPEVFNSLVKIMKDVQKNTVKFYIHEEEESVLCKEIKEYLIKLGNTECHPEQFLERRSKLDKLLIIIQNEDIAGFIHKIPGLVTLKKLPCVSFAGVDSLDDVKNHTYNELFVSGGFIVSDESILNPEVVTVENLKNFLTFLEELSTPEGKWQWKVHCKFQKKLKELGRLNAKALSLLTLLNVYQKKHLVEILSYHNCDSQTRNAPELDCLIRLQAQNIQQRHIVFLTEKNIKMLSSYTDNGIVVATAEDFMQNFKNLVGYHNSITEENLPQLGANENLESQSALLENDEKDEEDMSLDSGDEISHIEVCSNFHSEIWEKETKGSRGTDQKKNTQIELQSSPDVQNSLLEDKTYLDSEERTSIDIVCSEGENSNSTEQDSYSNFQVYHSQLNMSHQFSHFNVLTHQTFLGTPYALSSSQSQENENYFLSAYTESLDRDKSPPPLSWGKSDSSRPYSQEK

Biological target: Zinc Finger Protein 638 (ZNF638) (human (endogenous in A172)) (UniProt Q14966)
Assay: co-IP

With “MPP8 (M-Phase Phosphoprotein 8) (from UniProt Q99549 1-860)” the binding was “binds”.
With “TASOR (Transcription Activation Suppressor) (from UniProt Q9UK61 1-1670)” the binding was “binds”.
